Test system: Scn1a+/- heterozygous knockout mice ([129xB]F1.Scn1a+/-), heat-induced seizures
Assay: Hyperthermia-induced seizure study in Scn1a+/- heterozygous knockout mice
Assay type: in vivo, mouse
Conditions: for Base. Temp: summary
Text: Reason for selection of species: The Scn1a^+/− knockout mouse ([129xB]F1. Scn1a^+/−) is a model subject of DS with a high translational value.
Between P14 and 16, Scn1a^+/− heterozygous knockout mice are randomly assigned to treatment groups (n=7 males, 7 females/treatment group). The Scn1a^+/− knockout mouse model was chosen because it is an art accepted animal model for epileptic conditions, including for Dravet Syndrome. Treatments are GABAA receptor modulator 1 (“Compound 1” as a phosphate salt at 0.1, 0.3, 1.0 mg/kg), GABAA receptor modulator 2 (“Compound 2” at 3, 10, 30, 100 mg/kg), vehicle, or Clobazam (“CBZ”) (10 mg/kg; positive control).
The GABAA receptor modulators were administered intraperitoneally (i.p.) using a 0.5 or 1-ml plastic syringe fitted with a 27 or 30 gauge 0.5″-long beveled needle.
Animals received 10 mL of formulation per kg of body weight as measured on the day of experiment.
In order to verify the dose concentration, mice were dosed with a test article or control and placed into individual housing cages. A temperature probe was gently inserted into the mouse's rectum and secured by taping the probe's wire to the mouse's tail with the tag end on the mouse's dorsal side. For each group, the insertion of the probe was as follows: • a. For mice administered CBZ, five (5) mins passed before insertion of the probe in order to allow 20-30 min pretreatment time when the state of hyperthermia reached. • b. For mice administered Compound 1, thirty-five (35) mins passed before insertion of the probe in order to allow 50-60 min pretreatment time when the state of hyperthermia is reached. • c. For mice administered […], five (5) mins passed before insertion of the probe in order to allow 20-30 min pretreatment time when the state of hyperthermia reached.
Each mouse was allowed to acclimate to the temperature probe for five (5) minutes before recording the baseline temperature. FIGS. 1-3 depict the starting temperatures of the female mice, the male mice, and the average starting temperatures of all mice prior to inducing the heat-induced seizures.
FIGS. 4-6 depict the final core body temperature of the female mice, the male mice, and the average final core body temperature of all mice after heating. FIGS. 7-9 illustrate the total temperature change for the female mice, the male mice, and average of all mice; while FIGS. 10-12 depict the average temperature change per minute for the female mice, the male mice, and average of all mice. The mouse's body temperature was maintained at 42.5° C. for 3 mins. If no seizure occurred, the mouse was considered seizure-free.

Question: For `CN1C(=O)CC(=O)N(c2ccccc2)c2cc(Cl)ccc21` [Clobazam, reference compound], which “Base. Temp” value (10 mg/kg (n = 24)) is on record?
Answer: 34.82 °C

Question: `CC(C)(O)c1cnn2c(-c3ccc(F)c(-c4c(F)cccc4C#N)c3)cnc2n1` [Compound 1] was tested. Which “Base. Temp” value (0.1 mg/kg (n = 16)) did it give?
Answer: 35.15 °C

Question: What about the “Base. Temp” value (0.3 mg/kg (n = 18)) of the same compound?
Answer: 35.20 °C

Question: And the “Base. Temp” value (1.0 mg/kg (n = 22))?
Answer: 35.34 °C

Question: With `C#Cc1ccc2c(c1)C(c1ccccn1)=NCc1c(-c3nc(CC)no3)ncn1-2` [Compound 2] as the compound, how does the “average change in body temperature per minute” value (100 mg/k, all mice, FIG. 12, lowest rate of all groups) read?
Answer: about 0.4 ° C./min

Question: And the “Base. Temp” value (3 mg/kg (n = 14))?
Answer: 35.28 °C

Question: And the “Base. Temp” value (10 mg/kg (n = 14))?
Answer: 35.27 °C

Question: What about the “Base. Temp” value (30 mg/kg (n = 15)) of the same compound?
Answer: 35.25 °C

Question: And the “Base. Temp” value (100 mg/kg (n = 8))?
Answer: 34.60 °C

— patent publication US20230020036A1, “TREATMENT OF EPILEPTIC CONDITIONS WITH GABAA RECEPTOR MODULATORS” (NEUROCYCLE THERAPEUTICS, INC., priority 2019, published 2023)
